Data reported in publication PMC9903500.
Results are given in words; binding and its absence hold for the method and conditions named. In cells and extracts the contact can be indirect. Some binding calls cover weakened binding; strength is not graded here.

Chains of the proteins cited; added tags and fusions are not shown.
UniProt Q16665: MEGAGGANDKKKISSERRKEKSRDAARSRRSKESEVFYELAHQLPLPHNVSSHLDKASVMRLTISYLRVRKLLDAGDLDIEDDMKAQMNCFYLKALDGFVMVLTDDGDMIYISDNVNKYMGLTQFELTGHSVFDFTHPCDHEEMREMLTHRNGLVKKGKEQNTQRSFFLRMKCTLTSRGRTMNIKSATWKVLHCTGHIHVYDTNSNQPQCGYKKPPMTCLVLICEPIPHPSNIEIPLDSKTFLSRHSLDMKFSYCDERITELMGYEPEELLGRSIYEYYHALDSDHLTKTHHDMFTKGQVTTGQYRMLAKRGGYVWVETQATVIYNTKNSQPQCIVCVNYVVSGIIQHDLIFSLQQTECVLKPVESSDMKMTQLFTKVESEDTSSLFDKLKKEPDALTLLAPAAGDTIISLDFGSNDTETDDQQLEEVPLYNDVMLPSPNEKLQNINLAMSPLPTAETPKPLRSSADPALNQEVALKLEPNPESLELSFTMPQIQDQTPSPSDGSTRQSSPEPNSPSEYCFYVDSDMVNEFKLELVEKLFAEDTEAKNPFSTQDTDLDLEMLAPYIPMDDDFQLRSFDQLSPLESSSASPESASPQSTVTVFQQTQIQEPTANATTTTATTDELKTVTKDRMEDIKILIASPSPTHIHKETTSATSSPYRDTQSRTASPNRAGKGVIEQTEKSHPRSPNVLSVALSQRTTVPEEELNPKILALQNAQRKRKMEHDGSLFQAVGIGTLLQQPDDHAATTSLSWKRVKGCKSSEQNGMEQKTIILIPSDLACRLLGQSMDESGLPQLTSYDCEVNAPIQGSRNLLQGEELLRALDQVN
UniProt Q92793: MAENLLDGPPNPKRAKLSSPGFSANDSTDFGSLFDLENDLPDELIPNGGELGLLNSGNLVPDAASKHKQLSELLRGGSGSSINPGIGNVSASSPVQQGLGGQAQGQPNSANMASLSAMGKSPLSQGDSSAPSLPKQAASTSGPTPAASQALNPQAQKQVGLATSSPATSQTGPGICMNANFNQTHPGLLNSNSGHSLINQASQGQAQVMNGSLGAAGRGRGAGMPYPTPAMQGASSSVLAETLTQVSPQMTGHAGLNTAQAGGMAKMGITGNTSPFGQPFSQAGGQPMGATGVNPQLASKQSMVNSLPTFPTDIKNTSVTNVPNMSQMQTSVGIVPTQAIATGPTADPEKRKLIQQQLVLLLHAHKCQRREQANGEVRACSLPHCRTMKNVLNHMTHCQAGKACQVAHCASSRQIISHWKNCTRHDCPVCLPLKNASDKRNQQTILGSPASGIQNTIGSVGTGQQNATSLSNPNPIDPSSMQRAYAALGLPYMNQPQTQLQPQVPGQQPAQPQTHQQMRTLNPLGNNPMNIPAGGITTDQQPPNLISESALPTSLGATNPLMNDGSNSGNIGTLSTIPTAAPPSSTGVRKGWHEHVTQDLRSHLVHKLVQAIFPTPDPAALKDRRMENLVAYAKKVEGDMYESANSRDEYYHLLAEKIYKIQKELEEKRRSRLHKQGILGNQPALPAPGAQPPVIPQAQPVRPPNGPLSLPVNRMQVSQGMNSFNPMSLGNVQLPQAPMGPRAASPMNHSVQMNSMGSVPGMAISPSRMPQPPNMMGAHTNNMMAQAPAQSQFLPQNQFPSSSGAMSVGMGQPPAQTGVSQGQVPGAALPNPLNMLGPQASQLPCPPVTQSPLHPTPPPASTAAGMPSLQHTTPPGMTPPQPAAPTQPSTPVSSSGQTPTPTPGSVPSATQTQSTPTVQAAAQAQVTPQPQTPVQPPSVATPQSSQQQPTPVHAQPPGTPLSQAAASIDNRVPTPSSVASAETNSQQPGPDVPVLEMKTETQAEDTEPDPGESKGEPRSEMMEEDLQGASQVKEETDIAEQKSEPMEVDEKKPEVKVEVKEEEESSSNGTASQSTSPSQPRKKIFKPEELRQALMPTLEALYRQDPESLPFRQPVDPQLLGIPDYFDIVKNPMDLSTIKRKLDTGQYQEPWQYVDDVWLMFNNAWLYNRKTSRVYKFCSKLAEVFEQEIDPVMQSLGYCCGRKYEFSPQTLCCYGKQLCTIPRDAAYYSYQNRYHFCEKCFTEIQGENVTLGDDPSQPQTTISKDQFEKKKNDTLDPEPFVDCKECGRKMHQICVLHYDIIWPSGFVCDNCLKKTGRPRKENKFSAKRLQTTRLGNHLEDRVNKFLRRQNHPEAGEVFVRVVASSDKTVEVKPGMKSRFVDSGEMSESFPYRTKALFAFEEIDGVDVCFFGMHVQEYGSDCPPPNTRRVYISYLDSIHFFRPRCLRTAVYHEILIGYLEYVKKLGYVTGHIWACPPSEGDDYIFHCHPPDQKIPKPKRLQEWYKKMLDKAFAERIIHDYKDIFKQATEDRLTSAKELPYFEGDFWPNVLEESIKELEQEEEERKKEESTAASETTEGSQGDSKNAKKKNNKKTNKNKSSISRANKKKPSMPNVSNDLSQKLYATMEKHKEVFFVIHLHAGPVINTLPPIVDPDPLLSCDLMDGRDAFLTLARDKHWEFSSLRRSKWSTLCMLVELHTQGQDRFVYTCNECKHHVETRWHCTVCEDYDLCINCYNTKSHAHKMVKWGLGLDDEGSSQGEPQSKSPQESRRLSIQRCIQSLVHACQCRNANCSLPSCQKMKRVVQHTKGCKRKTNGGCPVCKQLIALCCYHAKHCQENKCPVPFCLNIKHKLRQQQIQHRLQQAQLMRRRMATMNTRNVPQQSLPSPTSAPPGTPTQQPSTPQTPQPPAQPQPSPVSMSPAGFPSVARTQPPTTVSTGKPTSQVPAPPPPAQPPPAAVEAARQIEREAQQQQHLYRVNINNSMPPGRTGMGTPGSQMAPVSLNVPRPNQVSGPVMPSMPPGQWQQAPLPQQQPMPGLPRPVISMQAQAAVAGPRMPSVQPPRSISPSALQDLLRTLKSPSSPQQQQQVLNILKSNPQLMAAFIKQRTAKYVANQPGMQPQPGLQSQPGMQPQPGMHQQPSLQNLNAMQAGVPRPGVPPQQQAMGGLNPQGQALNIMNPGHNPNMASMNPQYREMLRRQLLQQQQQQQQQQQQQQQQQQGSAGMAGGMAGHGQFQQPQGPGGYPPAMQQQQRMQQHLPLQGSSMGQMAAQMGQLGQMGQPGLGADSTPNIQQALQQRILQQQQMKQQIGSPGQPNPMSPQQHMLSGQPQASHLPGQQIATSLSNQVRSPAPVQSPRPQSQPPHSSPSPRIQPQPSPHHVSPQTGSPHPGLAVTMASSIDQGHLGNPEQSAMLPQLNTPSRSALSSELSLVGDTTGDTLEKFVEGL

Target: HIF-1α (human (endogenous in HCC cells)) (UniProt Q16665)
Assay: co-IP; cells dissolved in RIPA; IP with anti-HIF-1α antibody or IgG and beads at 4 °C overnight; western blot for p300 and CBP; circPRDM4-overexpressing or control cells

- binding: binds
Substance: CBP (from UniProt Q92793 1-2442)
